Measurements published in paper PMC11434141.
No constants are given. Whether binding was seen depends on the method and setting. Binding seen in cells or lysates may run through a third protein. Some entries that bind do so weakly or less than the wild type.

Protein sequences, listed by entry. Tags and fused reporters are not part of them. Residues count along the entry.
UniProt O43791: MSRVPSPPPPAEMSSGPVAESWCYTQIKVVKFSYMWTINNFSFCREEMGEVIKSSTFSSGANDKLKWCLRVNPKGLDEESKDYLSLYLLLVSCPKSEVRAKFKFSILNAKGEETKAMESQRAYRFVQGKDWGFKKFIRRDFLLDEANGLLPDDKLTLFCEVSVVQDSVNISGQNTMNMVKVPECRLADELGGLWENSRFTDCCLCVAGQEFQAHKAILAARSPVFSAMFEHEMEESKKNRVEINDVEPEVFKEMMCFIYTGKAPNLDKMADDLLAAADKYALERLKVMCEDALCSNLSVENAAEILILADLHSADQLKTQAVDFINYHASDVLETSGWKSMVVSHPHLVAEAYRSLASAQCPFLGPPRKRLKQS
UniProt P70365: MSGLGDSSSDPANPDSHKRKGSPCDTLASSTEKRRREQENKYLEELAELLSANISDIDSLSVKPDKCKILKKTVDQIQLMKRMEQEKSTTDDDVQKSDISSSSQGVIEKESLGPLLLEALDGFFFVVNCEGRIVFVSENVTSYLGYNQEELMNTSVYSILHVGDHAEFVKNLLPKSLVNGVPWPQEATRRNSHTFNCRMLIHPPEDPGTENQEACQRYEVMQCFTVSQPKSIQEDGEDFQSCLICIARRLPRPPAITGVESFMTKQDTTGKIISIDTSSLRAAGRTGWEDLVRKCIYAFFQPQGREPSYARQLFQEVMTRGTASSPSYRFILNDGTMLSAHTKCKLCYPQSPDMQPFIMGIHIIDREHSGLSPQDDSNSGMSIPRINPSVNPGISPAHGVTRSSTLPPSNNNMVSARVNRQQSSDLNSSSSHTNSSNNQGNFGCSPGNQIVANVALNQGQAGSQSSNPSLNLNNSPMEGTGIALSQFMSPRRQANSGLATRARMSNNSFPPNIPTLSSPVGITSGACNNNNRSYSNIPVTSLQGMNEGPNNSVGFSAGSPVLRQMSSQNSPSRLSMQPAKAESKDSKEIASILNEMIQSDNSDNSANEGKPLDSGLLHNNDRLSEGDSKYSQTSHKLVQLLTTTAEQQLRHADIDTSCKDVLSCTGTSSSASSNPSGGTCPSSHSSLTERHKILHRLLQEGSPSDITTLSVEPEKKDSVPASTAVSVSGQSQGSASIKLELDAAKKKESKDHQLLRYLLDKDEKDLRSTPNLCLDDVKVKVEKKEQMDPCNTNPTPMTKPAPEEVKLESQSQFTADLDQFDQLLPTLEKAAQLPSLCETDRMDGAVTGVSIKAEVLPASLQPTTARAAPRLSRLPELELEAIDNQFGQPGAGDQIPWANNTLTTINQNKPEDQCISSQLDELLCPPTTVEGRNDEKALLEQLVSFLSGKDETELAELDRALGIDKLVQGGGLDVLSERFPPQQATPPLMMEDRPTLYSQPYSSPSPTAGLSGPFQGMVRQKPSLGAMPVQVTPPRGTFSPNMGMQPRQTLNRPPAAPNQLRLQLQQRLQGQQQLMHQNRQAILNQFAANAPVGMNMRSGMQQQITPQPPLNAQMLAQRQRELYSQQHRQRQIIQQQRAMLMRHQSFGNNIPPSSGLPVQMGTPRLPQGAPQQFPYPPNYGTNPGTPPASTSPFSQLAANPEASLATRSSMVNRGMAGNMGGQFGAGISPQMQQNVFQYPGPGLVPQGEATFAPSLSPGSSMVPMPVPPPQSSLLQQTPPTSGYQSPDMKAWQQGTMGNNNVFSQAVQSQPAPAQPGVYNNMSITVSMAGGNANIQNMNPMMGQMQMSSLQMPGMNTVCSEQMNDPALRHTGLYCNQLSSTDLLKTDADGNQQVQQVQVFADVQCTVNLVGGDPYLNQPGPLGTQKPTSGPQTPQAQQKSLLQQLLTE
UniProt Q15788: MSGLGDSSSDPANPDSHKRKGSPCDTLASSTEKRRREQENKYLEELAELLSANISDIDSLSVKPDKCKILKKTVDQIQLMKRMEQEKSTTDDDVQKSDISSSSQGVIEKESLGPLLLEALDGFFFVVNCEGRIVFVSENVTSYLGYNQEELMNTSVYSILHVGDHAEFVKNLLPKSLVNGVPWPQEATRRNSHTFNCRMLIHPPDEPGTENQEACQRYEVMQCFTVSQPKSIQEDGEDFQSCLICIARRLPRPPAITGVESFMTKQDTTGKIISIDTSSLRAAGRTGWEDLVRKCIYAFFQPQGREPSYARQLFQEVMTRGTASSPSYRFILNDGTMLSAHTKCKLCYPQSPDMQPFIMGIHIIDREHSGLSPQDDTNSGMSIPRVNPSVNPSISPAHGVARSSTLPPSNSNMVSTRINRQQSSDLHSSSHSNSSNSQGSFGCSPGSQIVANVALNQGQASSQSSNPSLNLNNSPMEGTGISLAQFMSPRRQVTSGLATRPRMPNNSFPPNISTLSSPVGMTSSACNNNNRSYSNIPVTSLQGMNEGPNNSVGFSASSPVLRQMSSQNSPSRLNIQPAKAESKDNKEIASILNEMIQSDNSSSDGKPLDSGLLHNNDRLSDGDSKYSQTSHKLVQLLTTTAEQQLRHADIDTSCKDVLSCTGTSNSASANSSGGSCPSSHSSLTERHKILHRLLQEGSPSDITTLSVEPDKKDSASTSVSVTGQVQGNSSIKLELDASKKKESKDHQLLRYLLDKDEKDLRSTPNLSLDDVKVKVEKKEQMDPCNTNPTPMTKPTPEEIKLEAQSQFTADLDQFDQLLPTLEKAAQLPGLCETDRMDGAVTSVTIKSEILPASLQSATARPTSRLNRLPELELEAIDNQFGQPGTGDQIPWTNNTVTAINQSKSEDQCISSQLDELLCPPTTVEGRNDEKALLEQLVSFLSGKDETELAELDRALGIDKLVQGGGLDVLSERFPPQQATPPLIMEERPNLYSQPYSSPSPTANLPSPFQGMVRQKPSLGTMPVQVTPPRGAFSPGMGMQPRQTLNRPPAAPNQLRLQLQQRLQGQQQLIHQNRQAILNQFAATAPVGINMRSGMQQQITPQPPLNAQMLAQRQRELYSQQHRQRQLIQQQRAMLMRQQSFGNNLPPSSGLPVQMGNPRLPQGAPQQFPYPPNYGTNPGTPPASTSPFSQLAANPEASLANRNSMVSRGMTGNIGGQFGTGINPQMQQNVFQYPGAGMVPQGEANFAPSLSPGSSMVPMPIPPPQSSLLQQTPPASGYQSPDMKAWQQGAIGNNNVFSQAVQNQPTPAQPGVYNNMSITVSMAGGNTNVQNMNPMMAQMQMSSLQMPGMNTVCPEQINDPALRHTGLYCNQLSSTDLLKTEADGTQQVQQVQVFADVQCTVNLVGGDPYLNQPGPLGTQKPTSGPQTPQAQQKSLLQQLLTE
UniProt Q9NZQ7, residues 19-290: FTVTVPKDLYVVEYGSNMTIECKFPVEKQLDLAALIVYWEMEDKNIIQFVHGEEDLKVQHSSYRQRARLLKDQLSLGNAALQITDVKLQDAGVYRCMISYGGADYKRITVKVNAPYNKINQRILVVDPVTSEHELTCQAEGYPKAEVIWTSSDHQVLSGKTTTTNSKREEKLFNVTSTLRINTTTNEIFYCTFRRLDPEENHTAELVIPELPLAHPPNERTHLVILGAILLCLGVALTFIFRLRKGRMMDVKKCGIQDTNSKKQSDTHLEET
UniProt P42227: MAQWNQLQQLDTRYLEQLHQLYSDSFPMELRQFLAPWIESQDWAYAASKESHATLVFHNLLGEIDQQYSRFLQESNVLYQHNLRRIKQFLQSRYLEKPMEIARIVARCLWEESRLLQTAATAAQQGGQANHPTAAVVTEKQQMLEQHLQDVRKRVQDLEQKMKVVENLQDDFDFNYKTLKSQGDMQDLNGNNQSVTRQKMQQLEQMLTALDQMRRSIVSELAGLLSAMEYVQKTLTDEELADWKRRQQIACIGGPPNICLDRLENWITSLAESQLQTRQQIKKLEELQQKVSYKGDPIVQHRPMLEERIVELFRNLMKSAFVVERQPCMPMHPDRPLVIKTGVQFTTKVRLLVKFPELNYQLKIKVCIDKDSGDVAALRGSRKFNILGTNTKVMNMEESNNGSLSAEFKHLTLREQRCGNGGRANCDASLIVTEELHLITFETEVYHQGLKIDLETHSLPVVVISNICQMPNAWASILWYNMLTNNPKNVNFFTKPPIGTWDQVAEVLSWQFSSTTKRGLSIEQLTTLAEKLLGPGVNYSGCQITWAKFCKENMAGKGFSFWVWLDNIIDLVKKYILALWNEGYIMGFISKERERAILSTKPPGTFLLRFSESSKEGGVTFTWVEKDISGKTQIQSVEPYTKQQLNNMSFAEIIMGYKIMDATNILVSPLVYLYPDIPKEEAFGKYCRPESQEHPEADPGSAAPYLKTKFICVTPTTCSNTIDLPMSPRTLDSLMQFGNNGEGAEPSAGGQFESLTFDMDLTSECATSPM
UniProt P40763: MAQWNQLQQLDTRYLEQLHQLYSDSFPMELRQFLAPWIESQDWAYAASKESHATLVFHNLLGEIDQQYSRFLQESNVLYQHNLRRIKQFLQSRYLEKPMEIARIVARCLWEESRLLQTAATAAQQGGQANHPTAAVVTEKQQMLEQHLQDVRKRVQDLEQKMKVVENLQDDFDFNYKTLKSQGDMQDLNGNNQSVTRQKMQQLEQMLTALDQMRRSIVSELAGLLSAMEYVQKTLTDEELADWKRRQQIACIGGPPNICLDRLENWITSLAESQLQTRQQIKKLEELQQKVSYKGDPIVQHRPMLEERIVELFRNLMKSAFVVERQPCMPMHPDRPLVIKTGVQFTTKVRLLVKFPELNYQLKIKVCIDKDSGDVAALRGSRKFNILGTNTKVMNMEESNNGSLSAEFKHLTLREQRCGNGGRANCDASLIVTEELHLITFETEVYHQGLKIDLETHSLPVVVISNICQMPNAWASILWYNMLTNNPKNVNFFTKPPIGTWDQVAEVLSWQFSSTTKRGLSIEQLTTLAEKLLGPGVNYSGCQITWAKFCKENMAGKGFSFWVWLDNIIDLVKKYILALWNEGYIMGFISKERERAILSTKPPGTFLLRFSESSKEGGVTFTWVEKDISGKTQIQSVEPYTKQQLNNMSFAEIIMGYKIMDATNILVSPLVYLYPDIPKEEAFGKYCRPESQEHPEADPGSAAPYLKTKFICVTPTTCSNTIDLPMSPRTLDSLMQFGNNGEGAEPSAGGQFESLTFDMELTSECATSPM

Key:
[1] = molecular target: SPOP (source not told for the experiment) (UniProt O43791); test: co-IP; co-IP of SPOP, SRC-1 and PD-L1 (Figure 5C); cells and bait not told
[2] = molecular target: SPOP (source not told for the experiment) (UniProt O43791); test: pull-down; GST pull-down with SRC-1, SPOP and PD-L1 together (Figure S4I); which protein was GST-fused is not told
SPOP in CRC cells = SPOP in CRC cells (UniProt O43791); test: co-IP; CRC cells, control and SRC-1 knockout (Figure 5I); cell line not told
[3] = molecular target: speckle-type POZ protein (SPOP), tagged, expressed in 293T cells (UniProt O43791); test: co-IP; 293T cells co-transfected with differently tagged proteins, with or without exogenous SRC-1 (Figure 5H)
[4] = molecular target: steroid receptor coactivator-1 (SRC-1), endogenous in CMT93 cells (mouse (endogenous in CMT93)) (UniProt P70365); test: co-IP; endogenous proteins of CMT93 and HCT116 cell lysates; indicated antibodies and Protein A/G Plus-Agarose at 4 °C overnight; blotted with specific antibodies
[5] = molecular target: steroid receptor coactivator-1 (SRC-1), endogenous in HCT116 cells (human (endogenous in HCT116)) (UniProt Q15788); test: as above

PD-L1 (source not told for the experiment) (from UniProt Q9NZQ7 19-290)
binding [1]: binds | binding [2]: binds

PD-L1 in CRC cells (from UniProt Q9NZQ7 19-290)
binding (SPOP in CRC cells): binds

SRC-1 (source not told for the experiment) (from UniProt Q15788 1-1441)
binding [1]: binds | binding [2]: binds

SRC-1, tagged, expressed in 293T cells (from UniProt Q15788 1-1441)
binding [3]: binds

STAT3, endogenous in CMT93 cells (from UniProt P42227 1-770)
binding [4]: binds

STAT3, endogenous in HCT116 cells (from UniProt P40763 1-770)
binding [5]: binds

programmed death-ligand 1 (PD-L1), tagged, expressed in 293T cells (from UniProt Q9NZQ7 19-290)
binding [3]: binds

B1: IRF1, endogenous in CMT93 cells (protein, UniProt P15314 1-329)
chain: MPITRMRMRPWLEMQINSNQIPGLIWINKEEMIFQIPWKHAAKHGWDINKDACLFRSWAIHTGRYKAGEKEPDPKTWKANFRCAMNSLPDIEEVKDQSRNKGSSAVRVYRMLPPLTRNQRKERKSKSSRDTKSKTKRKLCGDVSPDTFSDGLSSSTLPDDHSSYTTQGYLGQDLDMERDITPALSPCVVSSSLSEWHMQMDIIPDSTTDLYNLQVSPMPSTSEAATDEDEEGKIAEDLMKLFEQSEWQPTHIDGKGYLLNEPGTQLSSVYGDFSCKEEPEIDSPRGDIGIGIQHVFTEMKNMDSIMWMDSLLGNSVRLPPSIQAIPCAP
binding [4]: binds

B2: IRF1, endogenous in HCT116 cells (protein, UniProt P10914 1-325)
chain: MPITRMRMRPWLEMQINSNQIPGLIWINKEEMIFQIPWKHAAKHGWDINKDACLFRSWAIHTGRYKAGEKEPDPKTWKANFRCAMNSLPDIEEVKDQSRNKGSSAVRVYRMLPPLTKNQRKERKSKSSRDAKSKAKRKSCGDSSPDTFSDGLSSSTLPDDHSSYTVPGYMQDLEVEQALTPALSPCAVSSTLPDWHIPVEVVPDSTSDLYNFQVSPMPSTSEATTDEDEEGKLPEDIMKLLEQSEWQPTNVDGKGYLLNEPGVQPTSVYGDFSCKEEPEIDSPGGDIGLSLQRVFTDLKNMDATWLDSLLTPVRLPSIQAIPCAP
binding [5]: binds
